Measurements taken from PubChem BioAssay AID1259415 (National Center for Advancing Translational Sciences (NCATS), 2018).
Screen size: about 410,000 compounds; about 18,000 (4.4%) were called active. The shares of active, inactive and inconclusive entries below differ from those in the screen. Rule as the data show it: active = activity change below about -60%; inconclusive = no clear call, values can overlap the other calls; inactive = above about -39%.

Experiment: qHTS Assay for inhibitors of the human cytomegalovirus (HCMV)
Conditions: HFF cells, HCMV-luciferase reporter, 72 h; at 57.5 µM; stronger effect = lower value
In short: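 Cell-based, HFFs, 1000 cells/well, 16 h 37C; cpds in DMSO + HCMV-luc, MOI 1 PFU/cell; 72 h 37C; OneGlo luminescence after 5 min RT; norm. to buffer vs Salinomycin 10uM.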
% is scaled to controls: 0 for no effect and ±100 for the full control effect.

Structure (SMILES) | activity change, negative = inhibition
CC(C)(C)C(=O)NCCCc1nc2ccccc2n1CCCOc1ccc(Cl)cc1 | active: -84.5%
CCCN(CCC)CCNC(=O)c1cc(-c2ccc(Br)s2)nc2ccccc12 | inconclusive: -42.5%
CCc1ccc(NC(=O)C2CCCN2S(=O)(=O)c2ccc3c(c2)C(C)(C)C(=O)N3C)cc1 (configuration not stated) | inactive: -24.9%
CCOC(=O)N1CCN(CCc2ccccc2)CC1 | inconclusive: -47.3%
CCOc1cc(NS(=O)(=O)c2ccccc2)c(OCC)cc1NC(=O)c1ccco1 | active: -101%
Cc1ccc(/C=C2/NC(=O)N(c3ccccc3)C2=O)o1 | inconclusive: -55.2%
COc1ccccc1CN1CCC(CNC(=O)c2cnn(-c3ccc(C)c(C)c3)c2C2CCN(C(=O)OC(C)(C)C)CC2)CC1 | inconclusive: 0%
CCC/C=C1/CCCOC(C(=O)NCc2ccccc2)(C(F)(F)F)C1 (configuration not stated) | inactive: -10.8%
COc1ccc(S(=O)(=O)CCC(=O)N2CCN(c3ccc([N+](=O)[O-])cc3)CC2)cc1 | inconclusive: -49.5%
CCCSc1nc2c(cnn2-c2ccc(C)cc2)c(=O)[nH]1 | inconclusive: -42.3%
O=C(COC(=O)/C=C/c1ccc(Cl)cc1Cl)Nc1cccc(S(=O)(=O)NC2=NCCC2)c1 | active: -69.5%
Cn1c(N)c(C(=O)CN2CCN(S(=O)(=O)c3ccccc3C#N)CC2)c(=O)n(C)c1=O | inconclusive: -48.8%
COc1ccc(CNc2c(CO)cnc3c2cnn3C)cc1 | active: -66.6%
CN(C(=O)c1ccc(NC(=O)Cc2ccccc2)cc1)c1ccccc1 | inactive: 67.4%
CN1C(=O)c2[nH]nc(-c3ccc(F)cc3)c2C1c1ccccn1 (configuration not stated) | inconclusive: -59.3%
CN(CC(=O)Nc1cccc(F)c1)C(=O)c1cc(S(=O)(=O)N2CCCCC2)ccc1N1CCOCC1 | inactive: -18.4%
O=C(NCCC(F)(F)F)C1Cc2c(-c3ccc(Cl)cc3)ccnc2O1 (configuration not stated) | inconclusive: -41.8%
COc1ccccc1Cc1nc2ccccc2nc1SCC(=O)N1CCC(C)CC1 | inconclusive: -57.5%
COc1ccc(Oc2nc(C)nc3c2oc2ccccc23)cc1 | active: -67.7%
O=C(Cc1ccccc1)OC(COCc1ccccc1)CN1CCOCC1 (configuration not stated) | active: -88.2%
CCOC(=O)c1cc(-c2ccccc2)n(CCCC(=O)Nc2cc(C)ccc2OC)c1C | inconclusive: 0%

Single entries from the list:
O=C(COC(=O)/C=C/c1ccc(Cl)cc1Cl)Nc1cccc(S(=O)(=O)NC2=NCCC2)c1 – activity change, negative = inhibition: active: -69.5%
COc1ccccc1CN1CCC(CNC(=O)c2cnn(-c3ccc(C)c(C)c3)c2C2CCN(C(=O)OC(C)(C)C)CC2)CC1 – activity change, negative = inhibition: inconclusive: 0%
CCCN(CCC)CCNC(=O)c1cc(-c2ccc(Br)s2)nc2ccccc12 – activity change, negative = inhibition: inconclusive: -42.5%

Following part:

Structure (SMILES) | activity change, negative = inhibition
CCCC[n+]1c2ccccc2cc2ccccc21 | inconclusive: -52%
CC(C)NC(=O)c1cc2nc(-c3ccco3)cc(C(F)(F)F)n2n1 | inconclusive: -43.2%
COc1cc([N+](=O)[O-])cc(/C=N/NC(=O)CSc2ccccn2)c1O | inactive: 0%
COc1ccccc1N1CCN(c2cnccn2)CC1 | inconclusive: -51.4%
CCS(=O)(=O)N1CCN(c2ccc([N+](=O)[O-])c(NC(C)c3ccccc3)c2)CC1 (configuration not stated) | inconclusive: -44.5%
Cc1cccc(N2CCN(c3c4c(nc5nncn35)CCC4)CC2)c1C | inconclusive: -42.7%
CCc1nc2ccc(C(=O)N3CCN(C)CC3)cn2c1N(C)CCC(C)C | inconclusive: -53.4%
CN(C)CCCN(C(=O)CCc1ccccc1)c1nc2c(F)cccc2s1 | inconclusive: -40.3%
Cc1c(Cl)ccc(S(=O)(=O)N2CCN=C2c2ccccc2)c1Cl | inconclusive: -57.1%
CC(=O)Nc1ccc(S(=O)(=O)N2CCC(N3CCCC3)CC2)cc1 | inconclusive: -42.5%
COc1cc(/C=N/NC(=O)c2cc(-c3c(C)nn(-c4ccccc4)c3C)n[nH]2)ccc1O | inconclusive: -57.4%
COc1ccccc1-n1cnc2c(c1=O)c1nc3ccccc3nc1n2-c1ccc(C)c(C)c1 | inconclusive: -59.7%
O=C(Cc1cccs1)Nc1ccc(Cl)c(S(=O)(=O)N2CCOCC2)c1 | inconclusive: -44.5%
O=C(Cc1ccc(S(=O)(=O)N2CCOCC2)s1)Nc1cc(Cl)ccc1Cl | inactive: 19.4%
CC(O)C1C=CC=CC(=O)OC2CC3OC4C5OC5(C)CCC4(COC(=O)C4OC4(C)C(O)CO1)C2(C)C31CO1 (configuration not stated) | active: -96.2%
COc1ccccc1C(=O)Nc1cccc2cccnc12 | inactive: 35.2%
Cc1ccc(S(=O)(=O)N(Cc2ccccc2)c2ccccc2C(=O)N2CCCCC2)cc1 | inactive: -27.9%
CSc1nnc(-c2ccccc2)o1 | inactive: -0.758%
O=C(Nc1nc(-c2ccc(-c3ccccc3)cc2)cs1)c1cnccn1 | inconclusive: -40.5%
COc1ccccc1NC(=O)c1cc(S(=O)(=O)N2CCc3ccccc32)ccc1F | inconclusive: 0%
Cc1ccc(-n2cc(CCCCCCCCC(=O)O)nn2)cc1 | inactive: -27%
